Results on 4 molecules are retold here after patent US20220017612A1.

Protein sequences, listed by entry. Tags and fused reporters are not part of them. Lines headed by an entry give the natural chain unless they say otherwise; changes in a name come on top.
UniProt Q86YC3: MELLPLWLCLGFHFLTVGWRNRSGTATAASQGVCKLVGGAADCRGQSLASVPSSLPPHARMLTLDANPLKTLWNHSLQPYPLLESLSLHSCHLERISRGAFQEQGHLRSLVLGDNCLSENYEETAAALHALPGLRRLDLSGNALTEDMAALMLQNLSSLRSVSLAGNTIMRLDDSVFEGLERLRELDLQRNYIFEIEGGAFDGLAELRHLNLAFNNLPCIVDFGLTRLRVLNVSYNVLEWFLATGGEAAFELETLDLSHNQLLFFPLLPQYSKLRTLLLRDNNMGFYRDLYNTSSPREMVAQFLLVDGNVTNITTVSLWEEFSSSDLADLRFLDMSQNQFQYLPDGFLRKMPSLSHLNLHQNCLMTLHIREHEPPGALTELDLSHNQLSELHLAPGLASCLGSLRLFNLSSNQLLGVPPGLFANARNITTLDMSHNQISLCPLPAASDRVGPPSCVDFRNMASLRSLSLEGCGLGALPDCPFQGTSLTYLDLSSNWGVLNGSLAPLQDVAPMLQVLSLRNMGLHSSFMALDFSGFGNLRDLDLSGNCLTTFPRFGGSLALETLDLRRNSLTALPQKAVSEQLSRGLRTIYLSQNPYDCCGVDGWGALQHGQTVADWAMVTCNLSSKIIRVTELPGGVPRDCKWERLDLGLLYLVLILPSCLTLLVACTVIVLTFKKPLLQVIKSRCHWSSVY

To fix the notation:
B1: 22F9_hIgG1 (antibody, V domains shown)
VH: QVQLQQPGAELVKPGASVKLSCKASGYTFTSYWMHWVKQRPGQGLEWIGMIHPNSGSTNYNEKFKSKATLTVDKSSSTAYMQLSSLTSEDSAVYYCAYYDYDGFFDVWGTGTTVTVSS
VL: DIVLTQSPASLDVSLGQRATISCRASKSVSTSGYSYMHWYQQKSGQPPKLLIYLASNLESGVPARFSGSGSGTHFTLNIHPVEEEDAATYYCQHSRELPYTFGGGTKLEIK
B2: 28G11_hIgG1 (antibody, V domains shown)
VH: EVKLVESGGGLVQPGGSLSLSCAASGFTFTDYYMSWVRQPPGKALEWLGFIRNKPNGYTTEYSASVKGRFTISRDNSQSILYLQMNVLRAEDSATYYCARYTGGGYFDYWGQGTTLTVSS
VL: DIQMTQTTSSLSASLGDRLTISCRASQDISNYLNWYQQKPDGTVKLLIYYTSRLHSGVPSRFSGSGSGTDYSLTISNLEQADIATYFCQQGDTLPWTFGGGTKLEIK
B3: 24E3_hIgG1 (antibody, V domains shown)
VH: QAYLQQSGAELVRPGASVKMSCKASGYTFTSYNMHWVKQTPRQGLEWIGAIYPGNGDTSYNPKFKGKATLTVDKSSSTAYMQLSSLTSEDSAVYFCTRWDWGGYFDVWGTGTTVTVSS
VL: DIQMTQTTSSLSASLGDRVTISCRASQDISNYLNWYQQKPDGTVKLLIYYTSRLHSGVPSRFSGSGSGTDYSLTISNLEQEDIATYFCQQGDTLPWTFGGGTKLGIK
B4: 17G8_hIgG1 (antibody, V domains shown)
VH: EVKLVESGGGLVQPGGSLSLSCAASGFTFTDYYMSWVRQPPGKALEWLGFIRNKANGYTTEYSASVKGRFTISRDNSQSILYLQMNALRAEDSATYYCARYKLGGYFDVWGTGTTVTVSS
VL: DIQMTQTTSSLSASLGDRVTISCRASQDISNYLNWYQQKPDGTVKLLIYYTSRLHSGVPSRFSGSGSGTDYSLTISNLEQEDIATYFCQQGNTLPWTFGGGTKLEIK

No constants are given. Whether binding was seen depends on the method and setting. Some binding calls cover weakened binding; strength is not graded here.

The assay deals with LRRC33 and human LAP-TGFβ1 co-expressed on P3U1 cells (human) (UniProt Q86YC3). In words: flow cytometry, P3U1 cells. (A flow cytometer gives signals particle by particle.)
For B1, the binding entry was “binds”.

Turning to B2, the binding entry was “binds”.

Regarding B3, the binding result is listed as “binds”.

As to B4, the binding entry is reported as “binds”.
